Measurements taken from US20070134157A1, “Biological assay” (priority 2004, published 2007).
At least one compound was matched to its structure with a doubt left.

Tested on: Sprague Dawley rats
Test: rat electrocardiogram/electrophysiology model, 20-min continuous intravenous infusion
Assay type: in vivo
Method: Adult, male Sprague Dawley rats (240-280 g) were used for all studies. Rats were anesthetized with a mixture of ketamine:xylazine (85 mg/kg:5 mg/kg, ip). Catheters were placed in the left femoral artery and left femoral vein for the measurement of arterial pressure and the administration of test agents, respectively. In addition, a catheter was placed in the right femoral vein to administer a continuous infusion of ketamine:xylazine (45 mg/kg/hr:1.5 mg/kg/hr). A recording/stimulating catheter was then placed in the right jugular vein and advanced to the right atrium. Two electrodes were used to obtain bipolar atrial electrogram recording, and two were used for bipolar pacing of the atria/heart. The right carotid artery was then cannulated with a second recording/stimulating catheter, and the catheter was advance into the left ventricle. Two electrodes were used to obtain bipolar ventricular and His bundle electrograms, and two were used to pace the ventricle. Needle electrodes were placed subcutaneously in the right axillary and left inguinal areas to record lead II electrocardiogram. After equilibration and baseline readings, continuous infusion of test agent or vehicle was started and readings taken at 10 min and 20 min after start of infusion. Blood samples for plasma analysis were obtained from the femoral artery catheter at 10 and 20 min after the start of the infusion. Atrial effective (ARP), ventricular effective (VRP), and AV node effective (AVRP) refractory periods determined as follows: excitation threshold was determined for the atria and ventricles, then a conditioning train of stimuli (S1, 1 ms duration) at a cycle length of 150 ms was delivered at 1×-2× threshold followed by an extrastimulus (S2, 1 ms duration) at 2× threshold. The S1—S2 coupling interval was decreased by 5 ms, then 1 ms intervals to obtain refractory periods. ARP and VRP were defined as the shortest coupling interval that permitted propagation of an atrial or ventricular extrastimulus. AVRP was defined as the shortest coupling interval that permitted the propagation of the atria extrastimulus through the AV node to elicit ventricular depolarization. In addition, PR, AH (both a measure of AV nodal conduction) and HV (a measure of His-Purkinje conduction) intervals were measured during short (10-20 sec) trains of fixed S1—S1 interval pacing of 150 ms. QT interval was obtained during sinus rhythm. […] Am J Physiol. 1998;274:H747-51) were reported. Compounds were dissolved in either saline or N,N-dimethylformamide. Intravenous infusion of test agents or vehicles was normalized to body weight.
In an extension of these studies to longer duration infusions, 3-[(dimethylamino)methyl]-6-methoxy-2-methyl-4-phenylisoquinolin-1(2H)-one hydrochloride and (2-isopropyl-5-methylcyclohexyl)(diphenyl)phosphine oxide were tested in a 20-min intravenous continuous infusion protocol. […] Plasma levels of 3-[(dimethylamino)methyl]-6-methoxy-2-methyl-4-phenylisoquinolin-1(2H)-one hydrochloride at 10 and 20 min after the start of a 0.1 mg/kg/min infusion were 3.4±0.2 μM and 2.8±0.3 μM, respectively.

| SMILES | AV nodal conduction (0.03 mg/kg/min for 20 min) | AV node refractoriness (0.03 mg/kg/min for 20 min) | heart rate (0.03 mg/kg/min for 20 min) | HV interval (infusion at increasing rates) | QRS interval (infusion at increasing rates) | blood pressure (infusion at increasing rates) | heart rate (infusion at increasing rates) |
| --- | --- | --- | --- | --- | --- | --- | --- |
| CCOC(=O)C1=C(COCCN)NC(C)=C(C(=O)OC)C1c1ccccc1Cl (stereo not shown) [amlodipine] | no change | no change | no significant change | – | – | – | – |
| CCCNCC(O)COc1ccccc1C(=O)CCc1ccccc1 (stereo not shown) [propafenone] | – | – | – | dose-dependent increases | dose-dependent increases | without having significant effects | without having significant effects |
